No constants are given. Whether binding was seen depends on the method and setting.
Columns and labels:
[1] = biological target: Adenosine deaminase-like protein 1 (ADALP1), human (human) (UniProt Q6DHV7); experiment: crystal structure
[2] = biological target: Adenosine deaminase-like protein 1 (ADALP1), human (human) (UniProt Q6DHV7); experiment: SEC

B1: Adenosine deaminase-like protein 1 (ADALP1), human (enzyme, UniProt Q6DHV7 1-355)
chain: MIEAEEQQPCKTDFYSELPKVELHAHLNGSISSHTMKKLIAQKPDLKIHDQMTVIDKGKKRTLEECFQMFQTIHQLTSSPEDILMVTKDVIKEFADDGVKYLELRSTPRRENATGMTKKTYVESILEGIKQSKQENLDIDVRYLIAVDRRGGPLVAKETVKLAEEFFLSTEGTVLGLDLSGDPTVGQAKDFLEPLLEAKKAGLKLALHLSEIPNQKKETQILLDLLPDRIGHGTFLNSGEGGSLDLVDFVRQHRIPLELCLTSNVKSQTVPSYDQHHFGFWYSIAHPSVICTDDKGVFATHLSQEYQLAAETFNLTQSQVWDLSYESINYIFASDSTRSELRKKWNHLKPRVLHI
[1]
  binding: no binding
[2]
  binding: no binding
